# The other results are listed elsewhere or left out. Most entries show no effect beyond the scatter of the controls.
# Chains of the proteins cited; added tags and fusions are not shown. Lines headed by an entry give the natural chain unless they say otherwise; changes in a name come on top.
# UniProt Q6P0N0: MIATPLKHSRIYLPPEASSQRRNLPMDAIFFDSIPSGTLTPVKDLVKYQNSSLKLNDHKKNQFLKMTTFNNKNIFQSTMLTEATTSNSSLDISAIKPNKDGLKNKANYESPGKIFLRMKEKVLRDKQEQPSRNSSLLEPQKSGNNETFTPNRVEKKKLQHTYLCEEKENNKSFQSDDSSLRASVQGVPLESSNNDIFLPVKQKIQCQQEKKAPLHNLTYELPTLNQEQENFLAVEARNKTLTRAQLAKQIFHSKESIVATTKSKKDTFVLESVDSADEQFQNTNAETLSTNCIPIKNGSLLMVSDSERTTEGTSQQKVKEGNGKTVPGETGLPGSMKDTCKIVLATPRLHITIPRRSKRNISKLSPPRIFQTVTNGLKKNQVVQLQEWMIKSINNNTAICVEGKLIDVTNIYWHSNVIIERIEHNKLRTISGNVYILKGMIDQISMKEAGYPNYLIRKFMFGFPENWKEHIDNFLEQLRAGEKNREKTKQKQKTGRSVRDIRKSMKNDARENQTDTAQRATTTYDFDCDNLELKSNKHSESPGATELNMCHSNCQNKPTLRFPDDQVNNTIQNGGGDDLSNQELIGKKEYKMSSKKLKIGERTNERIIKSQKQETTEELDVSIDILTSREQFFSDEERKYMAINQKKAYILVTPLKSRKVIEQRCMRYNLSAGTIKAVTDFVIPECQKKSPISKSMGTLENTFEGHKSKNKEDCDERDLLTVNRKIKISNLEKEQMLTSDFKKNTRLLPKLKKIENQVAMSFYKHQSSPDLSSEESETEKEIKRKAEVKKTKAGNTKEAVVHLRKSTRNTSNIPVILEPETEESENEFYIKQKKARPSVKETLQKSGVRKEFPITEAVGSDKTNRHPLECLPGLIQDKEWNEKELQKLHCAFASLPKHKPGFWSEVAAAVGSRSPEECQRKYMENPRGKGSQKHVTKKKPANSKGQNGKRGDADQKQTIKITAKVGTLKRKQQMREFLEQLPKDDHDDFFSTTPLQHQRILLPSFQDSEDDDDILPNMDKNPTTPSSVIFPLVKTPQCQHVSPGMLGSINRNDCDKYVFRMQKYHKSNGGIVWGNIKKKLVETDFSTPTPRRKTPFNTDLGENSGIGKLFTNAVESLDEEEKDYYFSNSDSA
# UniProt Q6P1N9: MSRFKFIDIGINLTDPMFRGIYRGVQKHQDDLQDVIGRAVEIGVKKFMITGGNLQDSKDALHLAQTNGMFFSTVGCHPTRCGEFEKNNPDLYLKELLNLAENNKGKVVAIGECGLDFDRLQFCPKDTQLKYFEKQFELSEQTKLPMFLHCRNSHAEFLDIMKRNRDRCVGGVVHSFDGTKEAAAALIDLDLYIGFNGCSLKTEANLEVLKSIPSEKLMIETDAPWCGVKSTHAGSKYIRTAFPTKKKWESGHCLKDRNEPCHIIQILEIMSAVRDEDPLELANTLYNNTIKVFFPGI
# UniProt Q658P3: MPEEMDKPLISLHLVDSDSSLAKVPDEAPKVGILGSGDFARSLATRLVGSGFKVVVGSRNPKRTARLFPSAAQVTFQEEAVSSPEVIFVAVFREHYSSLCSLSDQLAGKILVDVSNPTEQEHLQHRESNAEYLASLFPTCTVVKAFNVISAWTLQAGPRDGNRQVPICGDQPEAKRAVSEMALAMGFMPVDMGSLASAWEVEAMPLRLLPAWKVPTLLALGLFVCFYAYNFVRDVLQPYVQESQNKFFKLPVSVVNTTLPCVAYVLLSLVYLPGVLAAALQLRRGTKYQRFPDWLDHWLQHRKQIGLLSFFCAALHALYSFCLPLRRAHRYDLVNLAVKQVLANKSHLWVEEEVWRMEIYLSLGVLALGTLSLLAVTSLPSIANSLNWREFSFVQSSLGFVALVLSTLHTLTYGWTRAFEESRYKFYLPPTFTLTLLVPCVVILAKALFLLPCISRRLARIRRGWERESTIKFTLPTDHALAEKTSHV
# UniProt Q6MZP7: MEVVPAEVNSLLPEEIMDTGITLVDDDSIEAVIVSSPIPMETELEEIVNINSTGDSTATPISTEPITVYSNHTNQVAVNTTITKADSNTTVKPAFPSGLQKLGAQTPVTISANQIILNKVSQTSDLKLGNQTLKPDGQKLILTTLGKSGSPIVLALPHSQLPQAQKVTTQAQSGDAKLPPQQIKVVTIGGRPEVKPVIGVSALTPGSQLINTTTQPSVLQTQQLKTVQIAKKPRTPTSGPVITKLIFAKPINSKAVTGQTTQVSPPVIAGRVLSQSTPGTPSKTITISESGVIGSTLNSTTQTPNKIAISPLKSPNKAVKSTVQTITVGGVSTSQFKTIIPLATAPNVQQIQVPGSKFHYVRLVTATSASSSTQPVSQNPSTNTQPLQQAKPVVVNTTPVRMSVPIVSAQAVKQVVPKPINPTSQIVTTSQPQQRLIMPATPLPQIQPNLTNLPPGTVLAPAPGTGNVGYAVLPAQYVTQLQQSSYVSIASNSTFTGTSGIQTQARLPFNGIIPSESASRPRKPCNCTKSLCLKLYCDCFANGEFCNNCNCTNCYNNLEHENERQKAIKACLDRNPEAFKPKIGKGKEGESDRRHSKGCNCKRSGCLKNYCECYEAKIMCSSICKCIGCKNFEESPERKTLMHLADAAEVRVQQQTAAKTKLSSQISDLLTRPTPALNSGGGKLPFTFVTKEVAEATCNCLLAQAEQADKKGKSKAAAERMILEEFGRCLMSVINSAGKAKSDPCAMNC
# UniProt Q6NUM6: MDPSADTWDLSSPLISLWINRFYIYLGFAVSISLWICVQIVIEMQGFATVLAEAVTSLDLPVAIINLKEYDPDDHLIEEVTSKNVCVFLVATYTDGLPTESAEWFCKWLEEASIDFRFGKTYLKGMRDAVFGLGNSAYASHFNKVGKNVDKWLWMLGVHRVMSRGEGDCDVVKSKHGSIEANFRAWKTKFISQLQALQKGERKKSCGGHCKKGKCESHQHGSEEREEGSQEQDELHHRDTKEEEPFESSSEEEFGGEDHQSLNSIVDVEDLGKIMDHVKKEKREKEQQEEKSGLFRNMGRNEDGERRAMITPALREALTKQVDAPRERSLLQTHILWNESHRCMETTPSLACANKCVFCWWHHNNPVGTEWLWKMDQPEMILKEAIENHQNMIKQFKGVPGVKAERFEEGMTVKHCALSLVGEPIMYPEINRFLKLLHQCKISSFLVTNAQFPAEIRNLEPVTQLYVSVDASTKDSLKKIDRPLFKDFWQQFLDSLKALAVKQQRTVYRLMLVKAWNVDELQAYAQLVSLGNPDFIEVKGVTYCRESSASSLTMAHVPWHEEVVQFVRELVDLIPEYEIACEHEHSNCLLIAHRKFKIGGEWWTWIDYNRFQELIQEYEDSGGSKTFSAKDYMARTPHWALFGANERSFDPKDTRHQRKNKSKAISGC
# UniProt Q6PEV8: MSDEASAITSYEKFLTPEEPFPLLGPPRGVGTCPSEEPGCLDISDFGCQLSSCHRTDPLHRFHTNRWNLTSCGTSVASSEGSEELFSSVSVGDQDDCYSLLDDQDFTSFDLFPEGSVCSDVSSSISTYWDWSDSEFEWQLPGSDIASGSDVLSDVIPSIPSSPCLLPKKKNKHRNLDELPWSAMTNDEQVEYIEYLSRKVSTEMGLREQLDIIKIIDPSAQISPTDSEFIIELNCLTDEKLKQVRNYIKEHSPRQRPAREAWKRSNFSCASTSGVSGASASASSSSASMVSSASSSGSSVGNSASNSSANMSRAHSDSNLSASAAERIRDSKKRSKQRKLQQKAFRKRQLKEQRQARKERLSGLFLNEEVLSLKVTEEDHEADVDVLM
# UniProt Q6L8Q7: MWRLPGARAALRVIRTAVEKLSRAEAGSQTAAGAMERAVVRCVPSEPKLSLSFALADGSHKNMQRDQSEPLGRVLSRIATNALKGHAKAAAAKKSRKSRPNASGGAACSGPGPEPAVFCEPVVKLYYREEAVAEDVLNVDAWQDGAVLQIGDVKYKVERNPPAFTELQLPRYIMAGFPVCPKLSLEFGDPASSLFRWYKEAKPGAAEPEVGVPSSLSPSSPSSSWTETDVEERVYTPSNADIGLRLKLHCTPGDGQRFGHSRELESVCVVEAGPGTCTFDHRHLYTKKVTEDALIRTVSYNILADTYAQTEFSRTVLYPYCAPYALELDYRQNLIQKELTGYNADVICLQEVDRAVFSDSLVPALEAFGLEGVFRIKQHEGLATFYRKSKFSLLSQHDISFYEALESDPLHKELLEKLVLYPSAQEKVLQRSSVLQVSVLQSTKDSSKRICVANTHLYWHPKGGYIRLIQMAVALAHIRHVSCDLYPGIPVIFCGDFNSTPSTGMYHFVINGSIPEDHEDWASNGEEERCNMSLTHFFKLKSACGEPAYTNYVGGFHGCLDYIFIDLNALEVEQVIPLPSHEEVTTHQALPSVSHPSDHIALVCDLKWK
# UniProt Q6IPR1: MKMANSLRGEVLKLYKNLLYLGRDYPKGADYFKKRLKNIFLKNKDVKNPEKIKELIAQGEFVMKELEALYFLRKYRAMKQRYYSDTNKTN
# UniProt Q6P9G9: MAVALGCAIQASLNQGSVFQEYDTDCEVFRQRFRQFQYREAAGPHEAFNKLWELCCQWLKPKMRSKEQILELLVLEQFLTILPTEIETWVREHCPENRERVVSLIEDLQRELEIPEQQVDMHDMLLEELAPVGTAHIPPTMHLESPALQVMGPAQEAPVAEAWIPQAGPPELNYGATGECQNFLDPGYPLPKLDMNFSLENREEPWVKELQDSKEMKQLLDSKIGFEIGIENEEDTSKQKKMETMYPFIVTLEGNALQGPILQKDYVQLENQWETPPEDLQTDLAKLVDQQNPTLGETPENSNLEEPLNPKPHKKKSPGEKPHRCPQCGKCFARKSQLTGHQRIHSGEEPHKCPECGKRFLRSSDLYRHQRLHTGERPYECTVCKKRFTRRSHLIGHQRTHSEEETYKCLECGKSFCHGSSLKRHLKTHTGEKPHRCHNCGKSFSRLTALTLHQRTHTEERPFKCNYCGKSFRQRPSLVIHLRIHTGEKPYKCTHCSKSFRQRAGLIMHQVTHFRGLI
# UniProt Q6DN03, whole entry: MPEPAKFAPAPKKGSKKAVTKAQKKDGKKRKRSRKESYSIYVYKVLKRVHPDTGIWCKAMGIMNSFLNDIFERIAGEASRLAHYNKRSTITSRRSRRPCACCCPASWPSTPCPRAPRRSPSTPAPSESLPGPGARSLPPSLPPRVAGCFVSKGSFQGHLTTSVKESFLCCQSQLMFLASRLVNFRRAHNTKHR
# UniProt Q6P2E9: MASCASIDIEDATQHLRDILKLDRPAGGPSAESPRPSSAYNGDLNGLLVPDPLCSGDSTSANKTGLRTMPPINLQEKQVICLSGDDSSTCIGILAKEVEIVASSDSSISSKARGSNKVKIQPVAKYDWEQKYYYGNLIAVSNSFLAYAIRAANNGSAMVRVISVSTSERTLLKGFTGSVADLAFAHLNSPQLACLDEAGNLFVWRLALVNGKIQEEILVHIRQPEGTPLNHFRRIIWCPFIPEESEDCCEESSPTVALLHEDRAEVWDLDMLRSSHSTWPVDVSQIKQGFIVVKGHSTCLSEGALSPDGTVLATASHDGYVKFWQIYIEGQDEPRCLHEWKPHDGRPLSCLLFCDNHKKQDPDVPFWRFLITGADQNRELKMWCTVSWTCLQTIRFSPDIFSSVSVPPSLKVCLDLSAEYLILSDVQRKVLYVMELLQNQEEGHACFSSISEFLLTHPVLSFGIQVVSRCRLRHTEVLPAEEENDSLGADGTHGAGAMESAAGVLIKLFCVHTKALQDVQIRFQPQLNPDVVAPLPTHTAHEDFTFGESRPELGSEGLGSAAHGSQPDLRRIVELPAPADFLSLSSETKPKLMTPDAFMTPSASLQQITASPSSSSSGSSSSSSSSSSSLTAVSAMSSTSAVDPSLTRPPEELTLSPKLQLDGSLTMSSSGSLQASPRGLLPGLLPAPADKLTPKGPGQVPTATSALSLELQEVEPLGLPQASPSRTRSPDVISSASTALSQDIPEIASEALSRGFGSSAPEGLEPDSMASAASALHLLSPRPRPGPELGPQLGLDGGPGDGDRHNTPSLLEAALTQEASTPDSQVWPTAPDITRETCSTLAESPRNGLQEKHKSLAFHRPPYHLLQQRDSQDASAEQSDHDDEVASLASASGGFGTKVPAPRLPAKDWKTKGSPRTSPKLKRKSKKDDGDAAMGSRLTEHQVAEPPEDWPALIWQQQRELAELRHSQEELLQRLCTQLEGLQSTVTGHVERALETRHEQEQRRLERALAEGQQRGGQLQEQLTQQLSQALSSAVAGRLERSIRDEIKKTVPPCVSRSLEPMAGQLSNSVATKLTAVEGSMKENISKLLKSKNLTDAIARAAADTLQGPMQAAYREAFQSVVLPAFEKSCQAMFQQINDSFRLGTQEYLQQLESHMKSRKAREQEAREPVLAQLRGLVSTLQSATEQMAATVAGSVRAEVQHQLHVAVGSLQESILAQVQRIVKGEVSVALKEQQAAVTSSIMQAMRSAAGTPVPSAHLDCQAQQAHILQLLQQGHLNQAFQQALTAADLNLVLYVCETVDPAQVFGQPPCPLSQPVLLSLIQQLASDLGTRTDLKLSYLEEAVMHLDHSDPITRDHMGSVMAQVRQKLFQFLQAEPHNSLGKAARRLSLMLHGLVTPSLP
# Compound: CN[C@@H]1C[C@H]2O[C@@](C)([C@@H]1OC)n1c3ccccc3c3c4c(c5c6ccccc6n2c5c31)C(=O)NC4 [staurosporine]
# Assay: log2 fold change of tryptic peptide abundance, ligand vs vehicle (limited proteolysis) (log2 ratio); higher = more trypsin-susceptible (destabilized)
# Conditions: ligand concentration: 20 uM; sample: K562 cleared lysate; digestion: 4 min, 22 C (HT-PELSA RT4min, Orbitrap Astral)
row,Target,log2 fold change
1,"ZNF746 (peptide sequence: CKPPVGLNPR, peptide start residue: 385) (UniProt Q6NUN9)",-0.773
2,"SIGIRR (peptide sequence: SSEVDVSDLGSR, peptide start residue: 382) (UniProt Q6IA17)",-0.0206
3,"C14ORF106 (peptide sequence: AYILVTPLK, peptide start residue: 648) (UniProt Q6P0N0)",-0.489
4,"MED27 (peptide sequence: LQYHAGLASGLLNQQSLKR, peptide start residue: 117) (UniProt Q6P2C8)",0.162
5,"DCAF15 (peptide sequence: AHSEPLALCGETAPR, peptide start residue: 357) (UniProt Q66K64)",0.281
6,"TATDN1 (peptide sequence: KKWESGHCLK, peptide start residue: 246) (UniProt Q6P1N9)",0.476
7,"STEAP3 (peptide sequence: EHYSSLCSLSDQLAGK, peptide start residue: 94) (UniProt Q658P3)",1.61
8,"UniProt Q6SJ96 (peptide sequence: IVLLIFVSGK, peptide start residue: 300)",-0.0792
9,"MSANTD2 (peptide sequence: APGPAMYER, peptide start residue: 140) (UniProt Q6P1R3)",-0.111
10,"UniProt Q6T423 (peptide sequence: QELEAAQK, peptide start residue: 326)",0.0391
11,"CRTC3 (peptide sequence: SNPSIQATLNK, peptide start residue: 329) (UniProt Q6UUV7)",0.141
12,"ADAL (peptide sequence: GGPLVAK, peptide start residue: 151) (UniProt Q6DHV7)",-0.291
13,"LIN54 (peptide sequence: ADSNTTVKPAFPSGLQK, peptide start residue: 85) (UniProt Q6MZP7)",-0.328
14,"UniProt Q6RVD6 (peptide sequence: GGPGGLK, peptide start residue: 51)",0.0105
15,"FIGNL1 (peptide sequence: FKDSLLEPALASVVIHK, peptide start residue: 125) (UniProt Q6PIW4)",0.304
16,"UniProt Q6P2H3 (peptide sequence: EAEFSSAGHSLQDK, peptide start residue: 541)",-0.26
17,"UniProt Q6NUM6 (peptide sequence: AMITPALR, peptide start residue: 354)",-0.149
18,"UniProt Q6PIY7 (peptide sequence: EIQLLFPQSR, peptide start residue: 187)",-0.807
19,"UniProt Q6PGQ7 (peptide sequence: DVIVPSPWTDHEGK, peptide start residue: 107)",0.222
20,"FAM199X (peptide sequence: FLTPEEPFPLLGPPR, peptide start residue: 14) (UniProt Q6PEV8)",0.388
21,"PDE12 (peptide sequence: LSLSFALADGSHK, peptide start residue: 49) (UniProt Q6L8Q7)",-0.0645
22,"ETFRF1 (peptide sequence: ELEALYFLR, peptide start residue: 65) (UniProt Q6IPR1)",-0.106
23,"LMBRD2 (peptide sequence: ESNFSDVNTNR, peptide start residue: 622) (UniProt Q68DH5)",0.021
24,"ARID2 (peptide sequence: AIVNHPSAALMALRR, peptide start residue: 1732) (UniProt Q68CP9)",0.416
25,"UniProt Q6P9G9 (peptide sequence: VVSLIEDLQR, peptide start residue: 101)",0.422
26,"UniProt Q6PK81 (peptide sequence: LHTGEKPYECSECGK, peptide start residue: 212)",0.0383
27,"HIST2H2BC (peptide sequence: LAHYNKR, peptide start residue: 81) (UniProt Q6DN03)",0.149
28,"PSRC1 (peptide sequence: STPSPSSLTPR, peptide start residue: 137) (UniProt Q6PGN9)",0.142
29,"EDC4 (peptide sequence: LTAVEGSMKENISK, peptide start residue: 1074) (UniProt Q6P2E9)",-0.198

# Some of the entries so far, bar-delimited.
row | Target | log2 fold change
9 | MSANTD2 (peptide sequence: APGPAMYER, peptide start residue: 140) (UniProt Q6P1R3) | -0.111
26 | UniProt Q6PK81 (peptide sequence: LHTGEKPYECSECGK, peptide start residue: 212) | 0.0383

# From the supplement of paper PMC12819154, “High-throughput peptide-centric local stability assay extends protein–ligand identification to membrane proteins, tissues and bacteria” (Nature Structural & Molecular Biology, 2025)
